Measured values from the supplement of paper PMC4604168 (melanoma cell lines).
This is one part of the list. Repeats are few or missing, and single values can be far off.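 The apoptosis fraction was the count of cleaved-PARP antibody-stained nuclei relative to all DNA-stained nuclei, imaged in 1,536-well plates. Screening doses were set so most cells survived, and baseline and induced cleaved-PARP levels vary greatly across cell lines.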

Assays:
Assay in all cases: cleaved PARP positive nuclei fraction relative to DMSO control; melanoma cells; higher = more apoptosis
Details in all cases: library dose: low library concentration; 72 h
[1] = system: MZ2-MEL
[2] = system: MeWo
[3] = system: RPMI7951
[4] = system: RVH-421
[5] = system: SkMel28
[6] = system: SkMel2
[7] = system: SkMel30
[8] = system: SkMel5
[9] = system: UACC257
[10] = system: UACC62
[11] = system: WM115
[12] = system: WM1716
[13] = system: WM1745
[14] = system: WM3526
[15] = system: WM3619
[16] = system: WM451Lu

| Compound | cleaved PARP positive nuclei fraction [1] [%] | cleaved PARP positive nuclei fraction [2] [%] | cleaved PARP positive nuclei fraction [3] [%] | cleaved PARP positive nuclei fraction [4] [%] | cleaved PARP positive nuclei fraction [5] [%] | cleaved PARP positive nuclei fraction [6] [%] | cleaved PARP positive nuclei fraction [7] [%] | cleaved PARP positive nuclei fraction [8] [%] | cleaved PARP positive nuclei fraction [9] [%] | cleaved PARP positive nuclei fraction [10] [%] | cleaved PARP positive nuclei fraction [11] [%] | cleaved PARP positive nuclei fraction [12] [%] | cleaved PARP positive nuclei fraction [13] [%] | cleaved PARP positive nuclei fraction [14] [%] | cleaved PARP positive nuclei fraction [15] [%] | cleaved PARP positive nuclei fraction [16] [%] |
| --- | --- | --- | --- | --- | --- | --- | --- | --- | --- | --- | --- | --- | --- | --- | --- | --- |
| O=C(/C=C/c1cccnc1)NCCCCC1CCN(C(=O)c2ccccc2)CC1 + C[C@@H]1CCN(C(=O)CC#N)C[C@@H]1N(C)c1ncnc2[nH]ccc12 [CP690550] (first compound 0.01 µM, partner dose 1 µM) | 478 | 167 | 138 | 95.7 | 45.1 | 230 | 72.3 | 141 | 45.2 | 111 | 104 | 123 | 103 | 70.7 | 127 | 160 |
| Cc1ccc(Nc2nccc(N(C)c3ccc4c(C)n(C)nc4c3)n2)cc1S(N)(=O)=O [Pazopanib] + CC(C)(C)c1cnc(CSc2cnc(NC(=O)C3CCNCC3)s2)o1 [SNS-032] (first compound 0.4 µM, partner dose 0.01 µM) | 122 | 54.7 | 160 | 204 | 115 | 115 | 55.6 | 53.9 | 120 | 181 | 108 | 84.7 | 94.6 | 1550 | 95.5 | 159 |
| N#CC[C@H](C1CCCC1)n1cc(-c2ncnc3[nH]ccc23)cn1 [ruxolitinib] + C[C@@H]1CCN(C(=O)CC#N)C[C@@H]1N(C)c1ncnc2[nH]ccc12 [CP690550] (first compound 1 µM, partner dose 1 µM) | 121 | 168 | 133 | 80.5 | 56.7 | 47.5 | 63.7 | 44.9 | 25.5 | 51.5 | 101 | 42.3 | 92.1 | 50.7 | 90.4 | 48.5 |
| CCCCCCCCCCCCCCCCCCOP(=O)([O-])OC1CC[N+](C)(C)CC1 [Perifosine] + N#Cc1c(O)c2c(-c3ccc(-c4ccccc4O)cc3)csc2[nH]c1=O [A769662] (first compound 0.4 µM, partner dose 2 µM) | 122 | 128 | 111 | 52.6 | 178 | 56.8 | 188 | 77.8 | 85.6 | 120 | 88.9 | 73.1 | 94.8 | 86.3 | 112 | 71.5 |
| N#CC[C@H](C1CCCC1)n1cc(-c2ncnc3[nH]ccc23)cn1 [ruxolitinib] + CC(C)CCN1c2nc(Nc3cc(F)c(O)c(F)c3)ncc2N(C)C(=O)C1C [BID1870] (first compound 1 µM, partner dose 0.2 µM) | 246 | 181 | 64.8 | 127 | 64.3 | 162 | 173 | 202 | 53.8 | 52.9 | 48.8 | 95.6 | 81.1 | 71.5 | 103 | 87.6 |
| Cc1cn(-c2cc(NC(=O)c3ccc(C)c(Nc4nccc(-c5cccnc5)n4)c3)cc(C(F)(F)F)c2)cn1 [nilotinib] + O=C(O)C(=O)Nc1sc2c(c1C(=O)O)CCNC2 [TCS401] (first compound 0.2 µM, partner dose 1.66667 µM) | 129 | 82 | 141 | 147 | 46.1 | 90.6 | 170 | 169 | 113 | 245 | 76.7 | 49.4 | 100 | 155 | 99 | 34.4 |
| CC[C@]1(O)C[C@H]2CN(CCc3c([nH]c4ccccc34)[C@@](C(=O)OC)(c3cc4c(cc3OC)N(C=O)[C@H]3[C@@](O)(C(=O)OC)[C@H](OC(C)=O)[C@]5(CC)C=CCN6CC[C@]43[C@@H]65)C2)C1 [vincristine] + CN(NC(=O)CC(=O)NN(C)C(=S)c1ccccc1)C(=S)c1ccccc1 [STA4783] (first compound 0.0001 µM, partner dose 0.006 µM) | 74.8 | 208 | 221 | 167 | 374 | 98.9 | 124 | 166 | 142 | 518 | 3520 | 713 | 165 | 227 | 256 | 216 |
| O=C(/C=C/c1cccnc1)NCCCCC1CCN(C(=O)c2ccccc2)CC1 + CN(NC(=O)CC(=O)NN(C)C(=S)c1ccccc1)C(=S)c1ccccc1 [STA4783] (first compound 0.01 µM, partner dose 0.006 µM) | 407 | 50.7 | 103 | 239 | 44.1 | 296 | 24.2 | 138 | 60.2 | 163 | 300 | 196 | 321 | 56.2 | 228 | 82.1 |
| CC[C@]1(O)C[C@H]2CN(CCc3c([nH]c4ccccc34)[C@@](C(=O)OC)(c3cc4c(cc3OC)N(C=O)[C@H]3[C@@](O)(C(=O)OC)[C@H](OC(C)=O)[C@]5(CC)C=CCN6CC[C@]43[C@@H]65)C2)C1 [vincristine] + COc1ccc2c(c1)CCC1C2CCC2(C)C(NCCCCCCN3C(=O)C=CC3=O)CCC12 [U73122] (first compound 0.0001 µM, partner dose 0.4 µM) | 110 | 76.5 | 250 | 53.6 | 21.3 | 79.3 | 76.7 | 265 | 208 | 53.6 | 423 | 141 | 89.2 | 54.9 | 110 | 77.2 |

Record cards, from the list above. Order of values: cleaved PARP positive nuclei fraction [1] [%]	cleaved PARP positive nuclei fraction [2] [%]	cleaved PARP positive nuclei fraction [3] [%]	cleaved PARP positive nuclei fraction [4] [%]	cleaved PARP positive nuclei fraction [5] [%]	cleaved PARP positive nuclei fraction [6] [%]	cleaved PARP positive nuclei fraction [7] [%]	cleaved PARP positive nuclei fraction [8] [%]	cleaved PARP positive nuclei fraction [9] [%]	cleaved PARP positive nuclei fraction [10] [%]	cleaved PARP positive nuclei fraction [11] [%]	cleaved PARP positive nuclei fraction [12] [%]	cleaved PARP positive nuclei fraction [13] [%]	cleaved PARP positive nuclei fraction [14] [%]	cleaved PARP positive nuclei fraction [15] [%]	cleaved PARP positive nuclei fraction [16] [%]
Cc1ccc(Nc2nccc(N(C)c3ccc4c(C)n(C)nc4c3)n2)cc1S(N)(=O)=O [Pazopanib] + CC(C)(C)c1cnc(CSc2cnc(NC(=O)C3CCNCC3)s2)o1 [SNS-032] (first compound 0.4 µM, partner dose 0.01 µM) as listed: 122	54.7	160	204	115	115	55.6	53.9	120	181	108	84.7	94.6	1550	95.5	159
CC[C@]1(O)C[C@H]2CN(CCc3c([nH]c4ccccc34)[C@@](C(=O)OC)(c3cc4c(cc3OC)N(C=O)[C@H]3[C@@](O)(C(=O)OC)[C@H](OC(C)=O)[C@]5(CC)C=CCN6CC[C@]43[C@@H]65)C2)C1 [vincristine] + CN(NC(=O)CC(=O)NN(C)C(=S)c1ccccc1)C(=S)c1ccccc1 [STA4783] (first compound 0.0001 µM, partner dose 0.006 µM) as listed: 74.8	208	221	167	374	98.9	124	166	142	518	3520	713	165	227	256	216
